Laboratory results: PubChem BioAssay AID652248 (Drosophila RNAi Screening Center, 2013)

Aim: 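Genes that govern switching among distinct shape types in fly blood cells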 (primary screen)
Cells: cultured Drosophila hemocytes
Reagents: long dsRNA against Drosophila genes
Detection: 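Automated microscopy of stained actin, tubulin and nuclei; single-cell shape measures assigned to five reference shape types, giving a score per dsRNA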
Direction: elongated score: higher = more elongated bipolar cells
Active means: 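a gene counts as active when its knock-down clearly increases the elongated score; a low similarity score was then used to rank the actives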
Shown is one part, drawn at random, of 863 reagents. Over the whole deposit, 32 (3.7%) are marked active. 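Calls also used reproducibility and a similarity ranking whose scores are not deposited; many active genes show only modest elongated scores.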 Names joined by + are all predicted targets of the reagent. Further read-outs or replicates are left out here. Not stated in the record: the amount of reagent, the time to read-out.

| Gene | DRSC id | elongated score, rep 1 | elongated score, rep 2 | call |
| --- | --- | --- | --- | --- |
| CkIIalpha (GeneID 48448) | DRSC11946 | 0.91 | – | inactive |
| hpRNA:CR18854 (GeneID 10178800) | DRSC02702 | -0.37 | – | inactive |
| hpRNA:CR18854 (GeneID 10178800) | DRSC29809 | 3.45 | – | inactive |
| IP3K2 (GeneID 32285) | DRSC19747 | 1.48 | – | inactive |
| IP3K2 (GeneID 32285) | DRSC27191 | 1.76 | – | inactive |
| CG1637 (GeneID 32019) | DRSC18865 | 0.45 | – | inactive |
| CG1637 (GeneID 32019) | DRSC19748 | -0.22 | – | inactive |
| CG1637 (GeneID 32019) | DRSC19749 | 1.06 | – | inactive |
| CG1637 (GeneID 32019) | DRSC29080 | 3.41 | – | inactive |
| IA-2 (GeneID 33277) | DRSC00304 | -0.15 | 0.84 | inactive |
| IA-2 (GeneID 33277) | DRSC00652 | 0.04 | – | inactive |
| IA-2 (GeneID 33277) | DRSC23335 | 0.36 | – | inactive |
| IA-2 (GeneID 33277) | DRSC24588 | -0.53 | – | inactive |
| Cerk (GeneID 40640) | DRSC12285 | -0.03 | – | inactive |
| Ptp36E (GeneID 35091) | DRSC03021 | -0.11 | – | inactive |
| Ptp52F (GeneID 36790) | DRSC06717 | 1.07 | – | inactive |
| Ask1 (GeneID 42366) | DRSC16789 | -0.53 | – | inactive |
| Ask1 (GeneID 42366) | DRSC21697 | 0.44 | – | inactive |
| Wee1 (GeneID 33965) | DRSC03635 | -0.41 | – | inactive |
| Wee1 (GeneID 33965) | DRSC23318 | -0.12 | – | inactive |
| CG3494 (GeneID 37903) | DRSC04375 | 1.29 | – | inactive |
| gek (GeneID 37858) | DRSC04688 | 1 | – | inactive |
| Alp12 (GeneID 35218) | DRSC02515 | 0.32 | – | inactive |
| CG7497 (GeneID 39966) | DRSC10857 | 0.93 | – | inactive |
| CG7497 (GeneID 39966) | DRSC28188 | 0.73 | – | inactive |
| CG11426 (GeneID 40471) | DRSC11658 | -0.53 | – | inactive |
| CG11426 (GeneID 40471) | DRSC27815 | -0.33 | – | inactive |
| Src64B (GeneID 48973) | DRSC08700 | -0.53 | – | inactive |
| aPKC (GeneID 47594) | DRSC07639 | 0.88 | – | inactive |
| aPKC (GeneID 47594) | DRSC29936 | 1.49 | – | inactive |
| hppy (GeneID 37203) | DRSC07014 | 1.87 | – | inactive |
| hppy (GeneID 37203) | DRSC07015 | -0.09 | – | inactive |
| hppy (GeneID 37203) | DRSC07016 | 1.36 | – | inactive |
| hppy (GeneID 37203) | DRSC28168 | -0.53 | – | inactive |
| P58IPK (GeneID 41161) | DRSC16404 | 0.46 | – | inactive |
| P58IPK (GeneID 41161) | DRSC27012 | -0.26 | – | inactive |
| Pgk (GeneID 33461) | DRSC00769 | -0.24 | – | inactive |
| Pgk (GeneID 33461) | DRSC23340 | -0.32 | – | inactive |
| Pgk (GeneID 33461) | DRSC26595 | 0.12 | – | inactive |
| ninaC (GeneID 34012) | DRSC03579 | -0.53 | – | inactive |
| ninaC (GeneID 34012) | DRSC29875 | 3.41 | – | inactive |
| CG5026 (GeneID 39026) | DRSC10470 | -0.1 | – | inactive |
| Ire1 (GeneID 42358) | DRSC15606 | -0.53 | – | inactive |
| hep (GeneID 32256) | DRSC19839 | -0.38 | – | inactive |
| hep (GeneID 32256) | DRSC20337 | -0.9 | – | inactive |
| hep (GeneID 32256) | DRSC26331 | -0.53 | – | inactive |
| Dgk (GeneID 35738) | DRSC05064 | 0.68 | – | inactive |
| Dgk (GeneID 35738) | DRSC05065 | -0.21 | – | inactive |
| Dgk (GeneID 35738) | DRSC06782 | 3.14 | -0.53 | inactive |
| Dgk (GeneID 35738) | DRSC25166 | 4.96 | – | inactive |
| Adk2 (GeneID 39479) | DRSC09827 | 0 | – | inactive |
| put (GeneID 41772) | DRSC17039 | 1.05 | – | inactive |
| CG31140 (GeneID 42836) | DRSC14603 | -0.14 | – | inactive |
| CG31140 (GeneID 42836) | DRSC15904 | -0.53 | – | inactive |
| LIMK1 (GeneID 32207) | DRSC19811 | 0.3 | – | inactive |
| CG11438 (GeneID 40469) | DRSC11660 | -0.42 | – | inactive |
| CR43670 + grp + CR43671 + 1 more | DRSC03541 | 0.05 | – | inactive |
| Pka-C1 (GeneID 34284) | DRSC03399 | -0.31 | – | inactive |
| Pka-C1 (GeneID 34284) | DRSC23314 | -0.41 | – | inactive |
| Pka-C1 (GeneID 34284) | DRSC28268 | 1.76 | – | inactive |
| CG42327 (GeneID 41401) | DRSC14937 | -0.53 | – | inactive |
| CG42327 (GeneID 41401) | DRSC23337 | -0.22 | – | inactive |
| CG42327 (GeneID 41401) | DRSC28248 | 0.21 | – | inactive |
| Acph-1 (GeneID 48445) | DRSC14103 | -0.27 | – | inactive |
| CG6380 (GeneID 35040) | DRSC02950 | 3.4 | – | inactive |
| eas (GeneID 32585) | DRSC20329 | 6.45 | – | inactive |
| eas (GeneID 32585) | DRSC29435 | 6.77 | – | inactive |
| mbt (GeneID 32631) | DRSC23020 | -0.53 | – | inactive |
| mbt (GeneID 32631) | DRSC25818 | 0.3 | – | inactive |
| fbl (GeneID 46234) | DRSC11886 | -0.53 | – | inactive |
| fbl (GeneID 46234) | DRSC27922 | -0.43 | – | inactive |
| fbl (GeneID 46234) | DRSC29115 | 0.32 | – | inactive |
| CG10459 (GeneID 36000) | DRSC05991 | -0.53 | – | inactive |
| CG10459 (GeneID 36000) | DRSC22092 | 0.02 | – | inactive |
| Synj (GeneID 37517) | DRSC04526 | 0.16 | – | inactive |
| Pp1-87B (GeneID 49260) | DRSC16794 | 1.1 | – | inactive |
| Pp1-87B (GeneID 49260) | DRSC23299 | -0.53 | – | inactive |
| Pp1-87B (GeneID 49260) | DRSC27290 | -0.53 | – | inactive |
| CG7094 (GeneID 35065) | DRSC03005 | 0.27 | – | inactive |
| CG7094 (GeneID 35065) | DRSC29956 | 1.96 | – | inactive |
| Obsc (GeneID 3346201) | DRSC04301 | -0.13 | – | inactive |
| Obsc (GeneID 3346201) | DRSC04302 | 0.37 | – | inactive |
| Obsc (GeneID 3346201) | DRSC04303 | -0.04 | – | inactive |
| Obsc (GeneID 3346201) | DRSC04430 | -0.53 | – | inactive |
| Obsc (GeneID 3346201) | DRSC22422 | 0.57 | – | inactive |
| CG11811 (GeneID 39213) | DRSC09862 | 1.23 | – | inactive |
